Data: PubChem BioAssay AID493014 (National Center for Advancing Translational Sciences (NCATS), 2011)
This is one part of the list. These are further read-outs of the screen, such as a control signal, another cell line or another target. No call is given for them. Compounds called inactive in the main read-out are mostly missing here. Words in brackets tell the shape of the fitted curve; partial curves, single points and poor fits give uncertain potencies.

Assay: qHTS Assay to Find Inhibitors of Chronic Active B-Cell Receptor Signaling
Conditions: ABC-DLBCL IkBa-CBG/CBR reporter, luminescence ratio (green luciferase fused to IkBa over red control in TMD8 lymphoma cells), 4 h; measured here: CBR red luminescence, cell number
Procedure, shortened: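 TMD8 ABC-DLBCL cells carrying doxycycline-inducible green luciferase fused to IkappaBalpha plus unfused red luciferase were exposed to compounds (up to 46 uM) for 4 hrs at 37C. Activity came from the overlap-corrected green/red luminescence ratio.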

Question: Which AC50 does the source give for `O=C(CCNC(=O)N1C[C@H]2C[C@@H](C1)c1cccc(=O)n1C2)Nc1cccc(Cl)c1` here?
Answer: 14.1 µM [rising, partial curve, poor fit]

Question: For `COc1ccccc1Cn1c(SCC(=O)C(C)(C)C)nc2cc(C(=O)N3CCC4(CC3)OCCO4)ccc2c1=O`, which AC50 is on record?
Answer: 3.55 µM [rising, partial curve, poor fit]

Question: For `O=C(Nc1nccs1)c1ccc(S(=O)(=O)NCC2CCCCC2)cc1`, which AC50 is on record?
Answer: 11.2 µM [falling, partial curve, poor fit]

Question: For `CC(C)CNC(=O)c1c(N)n(Cc2ccco2)c2nc3ccccc3nc12`, which AC50 is on record?
Answer: 9.2 µM [falling, partial curve, poor fit]

Question: For `O=C(c1cc2c(s1)CCCC2)N1CCC2(CC1)OCCO2`, which AC50 is on record?
Answer: 4.11 µM [rising, full curve, poor fit]

Question: With `COc1ccc(NC(=O)CCCn2c(=O)oc3ccccc32)cc1Cl` as the compound, how does the AC50 read?
Answer: 29.1 µM [rising, single point]

Question: Which AC50 does the source give for `O=C1c2ccccc2C(=O)N1CCCn1c(=O)oc2ccccc21` here?
Answer: 29.1 µM [falling, single point]

Question: With `Cc1cc(OC(=O)c2ccco2)c2c3c(c(=O)oc2c1)CCC3` as the compound, how does the AC50 read?
Answer: 0.1 µM [rising, full curve, poor fit]

Question: For `Cn1c(O)c(/C=C2/C=CC=N2)c(=O)[nH]c1=O`, which AC50 is on record?
Answer: 11.2 µM [falling, single point]

Question: Which AC50 does the source give for `CCOC(=O)[C@@]1(C#N)C(c2ccc(Cl)c(Cl)c2)[C@H](C(N)=O)N2C=C(C(C)=O)C=C[C@H]21` (stereo not given in full) here?
Answer: 5.62 µM [falling, full curve, poor fit]

Question: With `CN(C)CCn1cnc2ccccc21` as the compound, how does the AC50 read?
Answer: 12.6 µM [rising, partial curve, poor fit]

Question: With `CCCOc1ccc(C(=O)NC(=S)N2C[C@H]3C[C@H](C2)c2cccc(=O)n2C3)cc1` as the compound, how does the AC50 read?
Answer: 11.2 µM [rising, partial curve, poor fit]

Question: With `CN=C1S/C(=C\c2ccc(SC)cc2)C(=O)N1C` as the compound, how does the AC50 read?
Answer: 3.16 µM [rising, full curve]

Question: For `O=c1oc2ccccc2c(O)c1C(c1ccc([N+](=O)[O-])cc1)c1c(O)c2ccccc2oc1=O`, which AC50 is on record?
Answer: 3.98 µM [falling, full curve]

Question: Which AC50 does the source give for `O=C1NC(=O)N(c2ccc(Br)cc2)C(=O)/C1=C/c1ccsc1` here?
Answer: 0.794 µM [falling, full curve, poor fit]

Question: With `CCOc1ccc(N2C(=O)/C(=C\c3cccs3)C(=O)NC2=S)cc1` as the compound, how does the AC50 read?
Answer: 5.01 µM [rising, single point]

Question: For `C#C[C@]1(O)CCC2C3CCC4=C/C(=N/OCC(=O)NC(C)C(=O)NC(CCSC)C(=O)O)CC[C@]4(C)C3CC[C@@]21C` (stereo not given in full), which AC50 is on record?
Answer: 0.891 µM [rising, full curve, poor fit]

Question: Which AC50 does the source give for `CC1CCCC(C)N1/N=C/c1c[nH]c2ccc(Br)cc12` (stereo not given) here?
Answer: 23.1 µM [falling, single point]

Question: For `CCCCCn1c(=O)c(C(=O)Nc2nc3ccccc3[nH]2)c(O)c2ccccc21`, which AC50 is on record?
Answer: 15.8 µM [falling, partial curve]

Question: With `CCn1c(O)c(/C=N/N2CCOCC2)c(=O)n(CC)c1=S` as the compound, how does the AC50 read?
Answer: 20.6 µM [falling, single point]

Question: With `COC(=O)C1=C(c2ccc(F)cc2F)C[C@@H]2CC[C@H]1N2C(=O)NC(C)C` as the compound, how does the AC50 read?
Answer: 10.3 µM [rising, partial curve]

Question: With `CON(C)C(=O)Nc1ccc(Cl)cc1` as the compound, how does the AC50 read?
Answer: 3.66 µM [rising, full curve]

Question: With `COC(=O)c1cccc(NC(=S)NCCC2=CCCCC2)c1` as the compound, how does the AC50 read?
Answer: 12.6 µM [falling, partial curve]

Question: With `CCC1C(c2ccccc2)NC(c2ccccc2)CC1(O)c1ccc(F)cc1` (stereo not given) as the compound, how does the AC50 read?
Answer: 17.8 µM [falling, single point]

Question: For `COC(=O)c1c(C)[nH]c(C(=O)C(Cc2ccccc2)N(C)C)c1C` (stereo not given), which AC50 is on record?
Answer: 6.51 µM [rising, single point]

Question: For `CC12CN3CC(C)(CN(C1)C3c1cccs1)C2=O` (stereo not given), which AC50 is on record?
Answer: 14.1 µM [rising, partial curve, poor fit]

Question: With `Fc1ccc(C[n+]2c(-c3ccccc3)cc(-c3ccccc3)cc2-c2ccccc2)cc1` as the compound, how does the AC50 read?
Answer: 23.1 µM [falling, partial curve]

Question: For `COc1ccccc1C(O)P(=O)(OCC(C)C)c1ccc(N(C)C)cc1` (stereo not given), which AC50 is on record?
Answer: 14.1 µM [falling, single point]

Question: With `N/C(=N\N=C/c1ccc(-c2ccc(O)c(C(=O)O)c2)o1)N[N+](=O)[O-]` as the compound, how does the AC50 read?
Answer: 12.6 µM [falling, single point]

Question: Which AC50 does the source give for `Cc1cccc(OP(N)(=O)Oc2cccc(C)c2)c1` here?
Answer: 20 µM [rising, single point]

Question: Which AC50 does the source give for `COc1ccc(CCC(C)NCCc2ccccc2)cc1` (stereo not given) here?
Answer: 14.6 µM [rising, partial curve, poor fit]

Question: Which AC50 does the source give for `Cc1c(C(c2ccc(F)cc2)c2c(O)c3ccccc3oc2=O)c(=O)n(-c2ccccc2)n1C` (stereo not given) here?
Answer: 8.2 µM [falling, partial curve]

Question: Which AC50 does the source give for `CCOC(=O)c1cccc(-[n+]2c(-c3ccccc3)cc(-c3ccccc3)cc2-c2ccccc2)c1` here?
Answer: 9.2 µM [falling, partial curve, poor fit]

Question: For `COC(=O)C1=C(c2ccc(Cl)c(C(F)(F)F)c2)C[C@@H]2CC[C@H]1N2C(=O)NC1CCCCC1`, which AC50 is on record?
Answer: 18.4 µM [falling, partial curve]

Question: Which AC50 does the source give for `COc1cc(OC)cc(-n2nc(C(=O)N3CCC4(CC3)OCCO4)c3ccccc3c2=O)c1` here?
Answer: 10.3 µM [rising, partial curve, poor fit]

Question: With `Cc1ccc(N2C(=O)NC(=O)C3(Cc4ccccc4N4CCN(c5ccccc5)CC43)C2=O)cc1` (stereo not given) as the compound, how does the AC50 read?
Answer: 2.82 µM [falling, full curve]

Question: For `CCCCCCn1c(N2CCC(C)CC2)nc2c1c(=O)[nH]c(=O)n2C`, which AC50 is on record?
Answer: 20 µM [rising, single point]

Question: For `c1ccc2c(c1)-c1cccc3cccc-2c13`, which AC50 is on record?
Answer: 25.9 µM [rising, partial curve, poor fit]

Question: Which AC50 does the source give for `O=c1c2ccccc2nc(/C=C/c2ccc(O)cc2)n1-c1ccc(O)cc1` here?
Answer: 8.91 µM [falling, partial curve, poor fit]

Question: With `O=C(OC1CCN(CCCl)CC1)C(c1ccccc1)c1ccccc1` as the compound, how does the AC50 read?
Answer: 29.1 µM [falling, single point]
